Results are given in words; binding and its absence hold for the method and conditions named. In cells and extracts the contact can be indirect. Some entries that bind do so weakly or less than the wild type. Sequences can lack the tags named with a protein.
Target: T1, ISLR-GFP (immunoglobulin superfamily containing leucine-rich repeat, GFP-tagged) (UniProt Q6GU68)
T1 sequence: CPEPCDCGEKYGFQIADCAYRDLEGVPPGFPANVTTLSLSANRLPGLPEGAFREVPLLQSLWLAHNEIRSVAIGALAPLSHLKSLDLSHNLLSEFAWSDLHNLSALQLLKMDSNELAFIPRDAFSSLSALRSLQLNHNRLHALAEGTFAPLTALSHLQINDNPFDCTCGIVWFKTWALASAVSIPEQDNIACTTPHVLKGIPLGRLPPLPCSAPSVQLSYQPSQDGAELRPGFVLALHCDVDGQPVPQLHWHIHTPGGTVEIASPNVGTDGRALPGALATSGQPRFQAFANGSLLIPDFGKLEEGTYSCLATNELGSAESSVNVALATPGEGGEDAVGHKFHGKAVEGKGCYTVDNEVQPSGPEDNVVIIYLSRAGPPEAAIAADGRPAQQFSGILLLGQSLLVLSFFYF
Test: co-IP; HEK293T cells transfected with ISLR-GFP and PKM2-Flag, cultured 2 d; Flag antibody or ISLR antibody as the bait; Western blot; also under H2O2 treatment (Figure S3A)

Chains of the proteins cited; added tags and fusions are not shown.
UniProt P52480: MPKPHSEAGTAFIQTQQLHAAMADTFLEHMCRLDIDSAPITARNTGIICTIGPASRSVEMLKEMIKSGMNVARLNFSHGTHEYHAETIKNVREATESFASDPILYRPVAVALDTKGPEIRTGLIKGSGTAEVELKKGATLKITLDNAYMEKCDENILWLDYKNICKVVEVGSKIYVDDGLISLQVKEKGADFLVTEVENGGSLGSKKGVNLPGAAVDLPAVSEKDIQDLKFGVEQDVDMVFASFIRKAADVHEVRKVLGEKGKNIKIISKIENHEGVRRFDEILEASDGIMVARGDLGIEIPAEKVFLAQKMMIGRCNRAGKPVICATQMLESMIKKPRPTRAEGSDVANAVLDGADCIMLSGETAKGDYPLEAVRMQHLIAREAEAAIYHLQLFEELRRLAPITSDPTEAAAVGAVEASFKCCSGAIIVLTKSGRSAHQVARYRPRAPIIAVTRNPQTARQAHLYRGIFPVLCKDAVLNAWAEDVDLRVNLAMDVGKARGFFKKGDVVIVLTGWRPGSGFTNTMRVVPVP

binding: binds
Substance: PKM2-Flag (pyruvate kinase isozyme M2, Flag-tagged) (from UniProt P52480 1-531) (enzyme)
